From paper PMC10653889

Molecular target: SepT (All2460), BACTH fusions (Anabaena sp. PCC 7120)
Assay: two-hybrid; BACTH (bacterial adenylate cyclase two-hybrid) in E. coli; beta-galactosidase activity (nmol ONP min^-1 mg protein^-1) in liquid cultures at 30°C; compared with both empty-vector controls (Fig. 3A)

binding: binds
B1: Alr0487 (putative SepF), BACTH fusion (protein, UniProt Q8YZH3 1-198)
chain: MNNIFSKLRDFVGLNEQVEYEYYEEEADTDNYQNLYQQENPQPAPAEAAPNNRRWREPMTTMGDDVAAGTKSAMGNVIGMPGAINGISEVLVLEPRTFEEMPQAIQALRERKSVVLNLTIMDPDQAQRAVDFVAGGTYALDGHQERIGESIFLFTPSCVQVSTQGGVIHEVPQPPARPARPASTNPPAWGNETNRMAQ

Results are given in words; binding and its absence hold for the method and conditions named. Binding can be weak; no strength is given. Tags and fused reporters may be left off the sequences shown.
